Source: PubChem BioAssay AID1117269 (University of Michigan, 2014)

Test: 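Which kinase knockdowns increase BTR reporter light after TGF-beta stimulation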 (primary screen)
Cells: human A549 lung cancer and 1833 breast cancer (MDA-MB-231-derived) cell lines carrying a stable BTR luciferase reporter
Reagents: siRNA pool against human genes
Time to read-out: 72 h after transfection, then 1 h TGF-beta before the read
Challenge: TGF-beta 10 ng/mL added one hour before luciferin and read-out
Detection: 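Live-cell BTR luciferase signal at 72 h after transfection and 1 h of TGF-beta at 10 ng/mL, fold versus scrambled siRNA, triplicate mean for each line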
Direction: fold over scrambled siRNA, A549 and fold over scrambled siRNA, 1833: higher = more reporter light, weaker TGF-beta receptor signalling
Rule for the call: 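Active if a hit in A549 or 1833; a line's hit exceeds an upper quartile-based cutoff on mean log fold values, applied per plate and across the whole screen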
Calls: active = hit in at least one line; inactive = hit in neither line
The deposit covers 714 reagents; shown is a random part of them. 49 of all reagents (6.9%) count as active. 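Active means a hit in at least one line; per-line hit columns show which; some siRNA pools appear more than once.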 Reagent sequences are not shown. The record does not give: the amount of reagent.

{"target gene": "NME6 (GeneID 10201)", "fold over scrambled siRNA, A549": 0.882, "fold over scrambled siRNA, 1833": 1.04, "hit in A549": "not a hit in A549", "hit in 1833": "not a hit in 1833", "Outcome": "inactive"}
{"target gene": "CDC7 (GeneID 8317)", "fold over scrambled siRNA, A549": 3.4, "fold over scrambled siRNA, 1833": 3.27, "hit in A549": "not a hit in A549", "hit in 1833": "not a hit in 1833", "Outcome": "inactive"}
{"target gene": "PDGFRL (GeneID 5157)", "fold over scrambled siRNA, A549": 1.32, "fold over scrambled siRNA, 1833": 2.33, "hit in A549": "not a hit in A549", "hit in 1833": "not a hit in 1833", "Outcome": "inactive"}
{"target gene": "ITPKB (GeneID 3707)", "fold over scrambled siRNA, A549": 3.05, "fold over scrambled siRNA, 1833": 12.3, "hit in A549": "not a hit in A549", "hit in 1833": "hit in 1833"}
{"target gene": "CAMK2N1 (GeneID 55450)", "fold over scrambled siRNA, A549": 0.627, "fold over scrambled siRNA, 1833": 1.27, "hit in A549": "not a hit in A549", "hit in 1833": "not a hit in 1833", "Outcome": "inactive"}
{"target gene": "PMVK (GeneID 10654)", "fold over scrambled siRNA, A549": 2.48, "fold over scrambled siRNA, 1833": 3.01, "hit in A549": "not a hit in A549", "hit in 1833": "not a hit in 1833", "Outcome": "inactive"}
{"target gene": "HCK (GeneID 3055)", "fold over scrambled siRNA, A549": 1.68, "fold over scrambled siRNA, 1833": 0.733, "hit in A549": "not a hit in A549", "hit in 1833": "not a hit in 1833", "Outcome": "inactive"}
{"target gene": "NME2 (GeneID 4831)", "fold over scrambled siRNA, A549": 2.24, "fold over scrambled siRNA, 1833": 2.74, "hit in A549": "not a hit in A549", "hit in 1833": "not a hit in 1833", "Outcome": "inactive"}
{"target gene": "NEK2 (GeneID 4751)", "fold over scrambled siRNA, A549": 4.07, "fold over scrambled siRNA, 1833": 1.07, "hit in A549": "not a hit in A549", "hit in 1833": "not a hit in 1833", "Outcome": "inactive"}
{"target gene": "SKAP1 (GeneID 8631)", "fold over scrambled siRNA, A549": 1.75, "fold over scrambled siRNA, 1833": 2.87, "hit in A549": "not a hit in A549", "hit in 1833": "not a hit in 1833", "Outcome": "inactive"}
{"target gene": "SCYL1 (GeneID 57410)", "fold over scrambled siRNA, A549": 2.29, "fold over scrambled siRNA, 1833": 6.37, "hit in A549": "not a hit in A549", "hit in 1833": "not a hit in 1833", "Outcome": "inactive"}
{"target gene": "TSKS (GeneID 60385)", "fold over scrambled siRNA, A549": 3.71, "fold over scrambled siRNA, 1833": 19.2, "hit in A549": "not a hit in A549", "hit in 1833": "hit in 1833"}
{"target gene": "GALK2 (GeneID 2585)", "fold over scrambled siRNA, A549": 1.05, "fold over scrambled siRNA, 1833": 2.71, "hit in A549": "not a hit in A549", "hit in 1833": "not a hit in 1833", "Outcome": "inactive"}
{"target gene": "TGFBR3 (GeneID 7049)", "fold over scrambled siRNA, A549": 1.65, "fold over scrambled siRNA, 1833": 5.96, "hit in A549": "not a hit in A549", "hit in 1833": "not a hit in 1833", "Outcome": "inactive"}
{"target gene": "CALM3 (GeneID 808)", "fold over scrambled siRNA, A549": 4.29, "fold over scrambled siRNA, 1833": 6.81, "hit in A549": "not a hit in A549", "hit in 1833": "not a hit in 1833", "Outcome": "inactive"}
{"target gene": "PRKAR2A (GeneID 5576)", "fold over scrambled siRNA, A549": 0.855, "fold over scrambled siRNA, 1833": 2.27, "hit in A549": "not a hit in A549", "hit in 1833": "not a hit in 1833", "Outcome": "inactive"}
{"target gene": "NEK11 (GeneID 79858)", "fold over scrambled siRNA, A549": 2.83, "fold over scrambled siRNA, 1833": 4.07, "hit in A549": "not a hit in A549", "hit in 1833": "not a hit in 1833", "Outcome": "inactive"}
{"target gene": "EPHB4 (GeneID 2050)", "fold over scrambled siRNA, A549": 12.9, "fold over scrambled siRNA, 1833": 7.29, "hit in A549": "hit in A549", "hit in 1833": "not a hit in 1833", "Outcome": "active"}
{"target gene": "RBKS (GeneID 64080)", "fold over scrambled siRNA, A549": 1.42, "fold over scrambled siRNA, 1833": 2.9, "hit in A549": "not a hit in A549", "hit in 1833": "not a hit in 1833", "Outcome": "inactive"}
{"target gene": "CDK7 (GeneID 1022)", "fold over scrambled siRNA, A549": 0.522, "fold over scrambled siRNA, 1833": 2.27, "hit in A549": "not a hit in A549", "hit in 1833": "not a hit in 1833", "Outcome": "inactive"}
{"target gene": "TBK1 (GeneID 29110)", "fold over scrambled siRNA, A549": 0.594, "fold over scrambled siRNA, 1833": 1.37, "hit in A549": "not a hit in A549", "hit in 1833": "not a hit in 1833", "Outcome": "inactive"}
